Values from PubChem BioAssay AID1508588 (Peter MacCallum Cancer Centre, 2020).
Here is a random part of about 18,000 reagents. 790 of them (4.4%) were called active. 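Calls rest on a combination of fold-change classes in drug and vehicle arms, not all shown here.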

Aim: 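Which gene losses make BRAF-mutant melanoma cells more responsive to vemurafenib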 (primary screen)
System: human WM266.4 melanoma cells (BRAF V600 mutant)
Knock-down reagent: siRNA pool against human genes, 40 nM
Duration: 96 h from transfection to read-out
Challenge: vemurafenib 300 nM (about IC25), added 48 h after transfection, for 48 h; comparison arm got DMSO vehicle only
Read-out: 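Ratios to non-targeting siRNA for cell gain, counted as DAPI nuclei after minus before drug and averaged over two replicates, and for absorbance-read medium lactate per cell; both binned into fold-change classes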
Reading the numbers: cell gain with vemurafenib: higher = more cell gain than with non-targeting siRNA; lactate per cell with vemurafenib: higher = more lactate made per cell
Active means: 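Enhancement is called by pairing each knock-down's vehicle-arm and drug-arm fold-change classes for viability or glycolysis; which class combinations qualify is not given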
Meaning of the calls: active = enhances vemurafenib effect; inactive = no enhancement seen

target gene,cell gain with vemurafenib,lactate per cell with vemurafenib,outcome
SAR1B (secretion associated Ras related GTPase 1B),0.49,1.12,inactive
EYS (EGF-like photoreceptor maintenance factor),0.43,0.29,inactive
KDM2B (lysine demethylase 2B),0.49,0.78,inactive
"HCK (HCK proto-oncogene, Src family tyrosine kinase)",1.06,0.62,inactive
EIF4EBP2,0.67,0.9,inactive
SUN5 (Sad1 and UNC84 domain containing 5),0.38,1.36,inactive
EPS15L1 (epidermal growth factor receptor pathway substrate 15 like 1),0.32,1.18,inactive
EPG5 (ectopic P-granules 5 autophagy tethering factor),0.21,2.31,inactive
KPNA5 (karyopherin subunit alpha 5),0.28,0.97,inactive
ABCA9 (ATP binding cassette subfamily A member 9),0.92,0.86,inactive
SLMAP (sarcolemma associated protein),0.76,0.65,inactive
CYP2A13 (cytochrome P450 family 2 subfamily A member 13),0.54,1,inactive
TMEM169 (transmembrane protein 169),0.91,1.01,inactive
ZNF680 (zinc finger protein 680),0.71,1.13,inactive
TRIM16L (tripartite motif containing 16 like (pseudogene)),0.84,0.86,inactive
GCLM (glutamate-cysteine ligase modifier subunit),1.22,0.9,inactive
ANK2 (ankyrin 2),0.73,0.92,inactive
"ITPRIP (inositol 1,4,5-trisphosphate receptor interacting protein)",1.27,0.62,inactive
CSNK1A1 (casein kinase 1 alpha 1),0.32,1.9,inactive
LCE3C (late cornified envelope 3C),0.17,1.45,inactive
"RAB6A (RAB6A, member RAS oncogene family)",0.68,0.86,inactive
FDXR (ferredoxin reductase),0.57,0.62,inactive
KLHL10 (kelch like family member 10),0.83,1.25,inactive
CLIC1 (CLIC family member 1),0.49,1.82,inactive
"PELP1 (proline, glutamate and leucine rich protein 1)",0.27,0.9,inactive
G3BP2 (G3BP stress granule assembly factor 2),0.48,0.8,inactive
TMEM184C (transmembrane protein 184C),0.92,0.7,active
CYP27B1 (cytochrome P450 family 27 subfamily B member 1),1.4,0.57,inactive
NFATC2 (nuclear factor of activated T cells 2),0.5,0.85,inactive
UPF3A (UPF3A regulator of nonsense mediated mRNA decay),0.56,0.65,active
ANKRD1 (ankyrin repeat domain 1),0.13,2.16,inactive
KCNK1 (potassium two pore domain channel subfamily K member 1),0.39,0.93,inactive
CCDC22 (CCC complex scaffolding subunit CCDC22),0.27,1.1,inactive
INPP1 (inositol polyphosphate-1-phosphatase),0.55,1.24,inactive
RC3H2 (ring finger and CCCH-type domains 2),0.91,0.91,inactive
STEEP1 (STING1 ER exit protein 1),0.6,0.39,inactive

Next part; the last 6 above are carried over.
target gene,cell gain with vemurafenib,lactate per cell with vemurafenib,outcome
ANKRD1 (ankyrin repeat domain 1),0.13,2.16,inactive
KCNK1 (potassium two pore domain channel subfamily K member 1),0.39,0.93,inactive
CCDC22 (CCC complex scaffolding subunit CCDC22),0.27,1.1,inactive
INPP1 (inositol polyphosphate-1-phosphatase),0.55,1.24,inactive
RC3H2 (ring finger and CCCH-type domains 2),0.91,0.91,inactive
STEEP1 (STING1 ER exit protein 1),0.6,0.39,inactive
C16orf46 (chromosome 16 open reading frame 46),0,1.98,inactive
OR11L1 (olfactory receptor family 11 subfamily L member 1),0.37,1.16,inactive
STAC2 (SH3 and cysteine rich domain 2),0.67,0.38,inactive
RFFL,0.97,0.82,inactive
YLPM1 (YLP motif containing 1),1.01,1.03,inactive
CDA (cytidine deaminase),0.77,0.44,inactive
CABP2 (calcium binding protein 2),1.12,1.15,inactive
LMNA (lamin A/C),0.81,1.62,inactive
GALNT10 (polypeptide N-acetylgalactosaminyltransferase 10),0.66,0.62,inactive
PTPRG (protein tyrosine phosphatase receptor type G),0.73,0.87,inactive
"ADH7 (alcohol dehydrogenase 7 (class IV), mu or sigma polypeptide)",0.17,1.92,inactive
CFAP251 (cilia and flagella associated protein 251),0.68,1.04,inactive
FBXW10B (F-box and WD repeat domain containing 10B),0.38,1.31,inactive
GTSF1L (gametocyte specific factor 1 like),0.67,0.46,inactive
PISD (phosphatidylserine decarboxylase),0.2,1.88,inactive
CHRDL1 (chordin like 1),0.38,1.06,inactive
PTGER3 (prostaglandin E receptor 3),0.75,0.81,inactive
OR11H1 (olfactory receptor family 11 subfamily H member 1),0.42,1.46,inactive
"PLAUR (plasminogen activator, urokinase receptor)",0.43,1.23,inactive
PRPS2 (phosphoribosyl pyrophosphate synthetase 2),0.72,0.89,inactive
CIMIP6 (ciliary microtubule inner protein 6),1.2,0.68,inactive
MANF (mesencephalic astrocyte derived neurotrophic factor),0.23,0.7,active
FAM161B (FAM161 centrosomal protein B),0.34,1.12,inactive
SEMA3F (semaphorin 3F),0.04,3.75,inactive
HS1BP3 (HCLS1 binding protein 3),0.73,0.76,inactive
CAMK2B (calcium/calmodulin dependent protein kinase II beta),0.68,1.52,inactive
HDGFL2 (HDGF like 2),0.49,1.1,inactive
MMP28 (matrix metallopeptidase 28),0.31,1.64,inactive
PUS10 (pseudouridine synthase 10),0.63,0.48,active
PSAP (prosaposin),0.74,1.64,inactive
CTC1 (CST telomere replication complex component 1),0.97,0.8,inactive
BSG (basigin (Ok blood group)),0.53,0.63,inactive
TRAF5 (TNF receptor associated factor 5),0.48,0.54,inactive
MAP3K19 (mitogen-activated protein kinase kinase kinase 19),0.51,1.08,inactive
SSX4 (SSX family member 4),0.83,0.59,inactive
HBD (hemoglobin subunit delta),0.74,0.85,inactive
SLC3A1,0.62,1.01,inactive
TOP3A (DNA topoisomerase III alpha),0.73,0.88,inactive
PDCD11 (programmed cell death 11),0.31,1.36,inactive
NOCT (nocturnin),0.39,0,inactive
DMTF1 (cyclin D binding myb like transcription factor 1),0.4,1.15,inactive
KCNH3 (potassium voltage-gated channel subfamily H member 3),1.21,0.46,inactive
ANKRD11 (ankyrin repeat domain 11),0.79,0.74,inactive
ATRNL1 (attractin like 1),0.84,1.08,inactive
STXBP6 (syntaxin binding protein 6),0.62,1.17,inactive
PLPPR1 (phospholipid phosphatase related 1),0.35,1.48,inactive
"PFKM (phosphofructokinase, muscle)",0.5,0.62,inactive
GAB1 (GRB2 associated binding protein 1),0.25,0.85,inactive
KANSL2 (KAT8 regulatory NSL complex subunit 2),0.49,1.5,inactive
FEZ1 (fasciculation and elongation protein zeta 1),0.65,0.72,inactive
BRINP1 (BMP/retinoic acid inducible neural specific 1),0.65,0.98,inactive
NDUFA11 (NADH:ubiquinone oxidoreductase subunit A11),0.83,1.71,inactive
SNRPD1 (small nuclear ribonucleoprotein D1 polypeptide),-0.03,0.84,inactive
ZIK1 (zinc finger protein interacting with K protein 1),1.02,0.6,inactive
CCNC (cyclin C),0.54,1.37,inactive
EXD1 (exonuclease 3'-5' domain containing 1),0.93,0.64,inactive
CYP46A1 (cytochrome P450 family 46 subfamily A member 1),0.92,0.99,inactive
GPRASP3,0.78,0.63,inactive
SLC16A7,0.62,0.22,inactive
AANAT (aralkylamine N-acetyltransferase),0.01,4.1,inactive
OTUD3 (OTU deubiquitinase 3),0.24,1.75,inactive
"SHQ1 (SHQ1, H/ACA ribonucleoprotein assembly factor)",0.96,0.71,inactive
TRIM39 (tripartite motif containing 39),0.82,0.9,inactive
MED7 (mediator complex subunit 7),0.3,0.34,inactive
PLXNB3 (plexin B3),0.78,0.32,inactive
TENT5C (terminal nucleotidyltransferase 5C),0.52,1.02,inactive
UTF1 (undifferentiated embryonic cell transcription factor 1),0.66,0.55,inactive
RPS6KC1 (ribosomal protein S6 kinase C1),0.85,0.79,inactive
CES3 (carboxylesterase 3),0.47,0.77,inactive
ATG4C (autophagy related 4C cysteine peptidase),0.16,1.27,inactive
SLC6A7,0.34,0.2,inactive
